Source: article PMC8638147
Results are given in words; binding and its absence hold for the method and conditions named. Binding seen in cells or lysates may run through a third protein. Some results given as binding are weak or reduced against the parent protein; the word gives no strength.

Protein sequences, listed by entry. Tags and fused reporters are not part of them. Lines headed by an entry give the natural chain unless they say otherwise; changes in a name come on top.
UniProt O43683: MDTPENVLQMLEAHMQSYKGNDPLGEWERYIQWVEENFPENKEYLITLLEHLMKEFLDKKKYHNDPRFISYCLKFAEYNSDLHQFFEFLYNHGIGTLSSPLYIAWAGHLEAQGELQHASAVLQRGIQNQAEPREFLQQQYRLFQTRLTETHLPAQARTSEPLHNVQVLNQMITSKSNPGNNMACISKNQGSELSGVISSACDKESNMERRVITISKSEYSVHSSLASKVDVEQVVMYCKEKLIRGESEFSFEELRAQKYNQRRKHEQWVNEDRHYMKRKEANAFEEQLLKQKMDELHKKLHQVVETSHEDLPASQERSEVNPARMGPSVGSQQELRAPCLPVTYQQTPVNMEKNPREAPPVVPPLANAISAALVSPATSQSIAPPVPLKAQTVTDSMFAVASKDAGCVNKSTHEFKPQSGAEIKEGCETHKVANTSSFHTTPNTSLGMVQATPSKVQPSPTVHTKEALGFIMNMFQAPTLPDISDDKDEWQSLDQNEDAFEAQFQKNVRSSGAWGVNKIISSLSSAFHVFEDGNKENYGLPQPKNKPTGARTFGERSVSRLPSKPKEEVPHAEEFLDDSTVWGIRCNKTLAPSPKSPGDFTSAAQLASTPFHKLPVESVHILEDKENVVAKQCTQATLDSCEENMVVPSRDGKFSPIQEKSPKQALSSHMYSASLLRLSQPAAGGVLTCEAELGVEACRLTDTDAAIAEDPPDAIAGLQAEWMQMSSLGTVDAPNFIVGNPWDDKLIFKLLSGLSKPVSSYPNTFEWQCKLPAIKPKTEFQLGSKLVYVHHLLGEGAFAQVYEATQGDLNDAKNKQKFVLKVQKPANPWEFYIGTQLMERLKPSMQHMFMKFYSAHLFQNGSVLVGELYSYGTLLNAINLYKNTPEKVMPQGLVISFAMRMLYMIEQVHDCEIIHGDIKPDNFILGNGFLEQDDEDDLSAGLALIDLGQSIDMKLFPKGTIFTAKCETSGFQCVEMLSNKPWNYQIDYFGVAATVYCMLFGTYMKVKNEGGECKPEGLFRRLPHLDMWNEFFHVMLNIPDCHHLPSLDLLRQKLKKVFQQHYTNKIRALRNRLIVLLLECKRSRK
UniProt P40763: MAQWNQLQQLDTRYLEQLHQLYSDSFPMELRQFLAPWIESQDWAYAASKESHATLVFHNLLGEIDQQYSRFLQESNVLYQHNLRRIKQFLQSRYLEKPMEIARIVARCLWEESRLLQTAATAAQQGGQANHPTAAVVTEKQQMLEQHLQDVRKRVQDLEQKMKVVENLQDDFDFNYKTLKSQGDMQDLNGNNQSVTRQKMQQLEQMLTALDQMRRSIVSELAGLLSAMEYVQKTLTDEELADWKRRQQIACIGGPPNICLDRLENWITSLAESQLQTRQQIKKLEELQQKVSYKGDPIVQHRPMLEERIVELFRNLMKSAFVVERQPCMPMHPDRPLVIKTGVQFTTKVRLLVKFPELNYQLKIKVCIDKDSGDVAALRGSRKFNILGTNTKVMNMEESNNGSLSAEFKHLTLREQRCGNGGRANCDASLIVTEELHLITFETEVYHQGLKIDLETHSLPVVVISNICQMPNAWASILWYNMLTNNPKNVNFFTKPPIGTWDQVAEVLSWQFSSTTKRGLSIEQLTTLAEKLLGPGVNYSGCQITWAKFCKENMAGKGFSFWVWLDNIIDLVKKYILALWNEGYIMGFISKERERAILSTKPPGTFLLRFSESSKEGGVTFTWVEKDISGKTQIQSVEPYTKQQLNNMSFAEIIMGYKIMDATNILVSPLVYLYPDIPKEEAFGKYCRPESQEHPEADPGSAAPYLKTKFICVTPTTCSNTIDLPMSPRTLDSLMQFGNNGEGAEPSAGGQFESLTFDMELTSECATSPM
UniProt Q09472: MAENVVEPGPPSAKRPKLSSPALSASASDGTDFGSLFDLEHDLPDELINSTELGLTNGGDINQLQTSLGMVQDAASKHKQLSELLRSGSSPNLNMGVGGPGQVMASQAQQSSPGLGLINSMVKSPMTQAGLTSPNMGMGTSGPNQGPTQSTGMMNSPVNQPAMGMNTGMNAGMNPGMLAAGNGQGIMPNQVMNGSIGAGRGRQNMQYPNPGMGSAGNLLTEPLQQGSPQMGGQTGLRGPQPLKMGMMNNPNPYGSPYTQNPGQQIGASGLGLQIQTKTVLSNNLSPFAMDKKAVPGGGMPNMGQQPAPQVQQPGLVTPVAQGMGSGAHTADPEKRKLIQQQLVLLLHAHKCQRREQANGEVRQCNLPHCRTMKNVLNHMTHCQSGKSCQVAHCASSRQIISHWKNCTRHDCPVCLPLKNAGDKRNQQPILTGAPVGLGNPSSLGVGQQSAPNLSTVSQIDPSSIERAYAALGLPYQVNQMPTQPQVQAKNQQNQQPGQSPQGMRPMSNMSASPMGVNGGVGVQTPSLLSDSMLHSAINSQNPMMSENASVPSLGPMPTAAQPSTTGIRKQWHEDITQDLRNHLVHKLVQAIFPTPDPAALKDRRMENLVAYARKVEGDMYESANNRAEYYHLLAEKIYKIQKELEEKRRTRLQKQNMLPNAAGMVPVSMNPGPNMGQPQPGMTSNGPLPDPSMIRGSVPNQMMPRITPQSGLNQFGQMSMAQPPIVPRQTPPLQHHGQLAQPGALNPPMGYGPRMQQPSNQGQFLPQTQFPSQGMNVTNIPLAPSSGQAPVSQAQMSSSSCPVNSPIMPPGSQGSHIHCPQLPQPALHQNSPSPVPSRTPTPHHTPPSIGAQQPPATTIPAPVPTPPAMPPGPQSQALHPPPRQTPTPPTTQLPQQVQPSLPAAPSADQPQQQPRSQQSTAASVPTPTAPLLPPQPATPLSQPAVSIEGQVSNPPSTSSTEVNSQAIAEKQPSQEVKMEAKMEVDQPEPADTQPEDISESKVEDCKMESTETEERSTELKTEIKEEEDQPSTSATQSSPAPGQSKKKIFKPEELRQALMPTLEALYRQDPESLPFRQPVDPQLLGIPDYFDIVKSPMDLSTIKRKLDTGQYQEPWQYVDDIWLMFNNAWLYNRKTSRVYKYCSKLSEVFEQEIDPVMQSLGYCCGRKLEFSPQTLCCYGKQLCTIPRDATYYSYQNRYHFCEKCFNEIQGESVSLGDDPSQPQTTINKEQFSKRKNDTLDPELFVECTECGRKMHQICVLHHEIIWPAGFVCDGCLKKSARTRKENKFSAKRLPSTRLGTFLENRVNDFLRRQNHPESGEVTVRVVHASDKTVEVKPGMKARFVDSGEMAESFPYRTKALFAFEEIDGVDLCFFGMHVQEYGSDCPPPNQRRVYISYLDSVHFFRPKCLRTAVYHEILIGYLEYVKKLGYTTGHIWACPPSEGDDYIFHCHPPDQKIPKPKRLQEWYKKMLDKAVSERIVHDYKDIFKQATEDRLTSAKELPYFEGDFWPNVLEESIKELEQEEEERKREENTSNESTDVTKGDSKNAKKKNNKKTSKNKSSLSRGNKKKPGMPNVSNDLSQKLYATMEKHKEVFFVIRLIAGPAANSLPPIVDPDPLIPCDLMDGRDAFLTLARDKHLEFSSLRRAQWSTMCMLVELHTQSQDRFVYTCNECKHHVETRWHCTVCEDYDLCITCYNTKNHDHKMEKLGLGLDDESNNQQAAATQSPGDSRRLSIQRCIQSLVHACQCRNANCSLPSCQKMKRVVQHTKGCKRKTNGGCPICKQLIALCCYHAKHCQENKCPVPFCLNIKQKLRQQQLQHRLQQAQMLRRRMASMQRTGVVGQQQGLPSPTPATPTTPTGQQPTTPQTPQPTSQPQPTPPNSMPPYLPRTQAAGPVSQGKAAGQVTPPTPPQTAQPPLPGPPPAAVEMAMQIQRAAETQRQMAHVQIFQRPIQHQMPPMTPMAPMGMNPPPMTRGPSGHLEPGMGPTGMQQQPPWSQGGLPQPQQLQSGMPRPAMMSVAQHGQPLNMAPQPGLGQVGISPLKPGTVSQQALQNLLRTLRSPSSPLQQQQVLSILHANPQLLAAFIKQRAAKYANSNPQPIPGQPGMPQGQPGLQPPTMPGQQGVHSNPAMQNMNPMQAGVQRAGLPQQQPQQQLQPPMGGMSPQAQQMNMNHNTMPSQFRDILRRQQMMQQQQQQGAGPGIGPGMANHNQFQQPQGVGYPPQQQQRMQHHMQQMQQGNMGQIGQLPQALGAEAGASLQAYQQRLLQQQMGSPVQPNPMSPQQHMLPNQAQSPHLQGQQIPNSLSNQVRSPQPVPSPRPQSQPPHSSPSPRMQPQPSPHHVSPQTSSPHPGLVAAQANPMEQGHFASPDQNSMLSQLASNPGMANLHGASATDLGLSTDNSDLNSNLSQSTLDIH

Tests used:
[1] = target: BUB1 (budding uninhibited by benzamidazole 1), mitotic serine/threonine kinase (human (endogenous in T24, EJ and 5637)) (UniProt O43683); test: co-IP; lysates of T24, EJ and 5637 cells grown serum-fed; lysis buffer 150 mM KCl, 75 mM HEPES pH 7.5, 1.5 mM EGTA, 1.5 mM MgCl2, 10% glycerol, 0.075% NP-40; protein A-Sepharose with antibody overnight at 4 C; Western blot
[2] = target: BUB1 (budding uninhibited by benzamidazole 1), mitotic serine/threonine kinase (human (endogenous in T24, EJ and 5637)) (UniProt O43683); test: co-IP; myc-tagged STAT3 full length and deletion mutants in 5637 cells (the text says pulldown, the legend co-IP); Western blot for BUB1

Row | Substance | binding [1] | binding [2]
1 | STAT3 (from UniProt P40763 1-770) | binds | 
2 | histone acetyltransferase p300 (from UniProt Q09472 1-2414) (enzyme) | binds | 
3 | myc-tagged C-terminal (amino acids 586-770) domain of STAT3 (from UniProt P40763 586-770) (domain or fragment) |  | binds
4 | myc-tagged full-length STAT3 (from UniProt P40763 1-770) |  | binds
